Source: PubChem BioAssay AID2417 (National Center for Advancing Translational Sciences (NCATS), 2010)
The whole screen tested about 140,000 compounds, of which about 4,300 (3.1%) were called active. This list was built around the results that the source calls inconclusive (neither active nor inactive); the mix of calls is not that of the screen.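 The calls were made as follows: active = readout at or below -70, meaning at least 70% loss of cells showing the perinucleolar compartment, a nuclear body marking cancer cells; inconclusive = readout between -30 and a set limit; inactive = the rest.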

experiment: High Content Assay for Compounds that inhibit the Assembly of the Perinucleolar Compartment; details: PC3M PTB-GFP, PNC prevalence imaging, 16 h; at 10 µM; stronger effect = lower value;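 also: plate controls were DMSO wells for no effect and camptothecin positive control wells for full effect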
Procedure, shortened: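 PC3M cells stably expressing PTB-GFP, 750–1000 cells/well, treated 16 h at 37 °C with compound (23 nl of library stock), in duplicate. After paraformaldehyde fixation and Hoechst stain, imaged at 20x; PNC prevalence scored by image analysis.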

SMILES	activity change (PNC), negative = inhibition
N#CCSc1nc2[nH]ncc2c(=O)n1-c1ccccc1Br	inactive: 21.5%
N#CC(=C1CCCC1)c1nc(-c2ccccc2O)cs1	inconclusive: -34.4%
Cc1cc2ccccc2n1CCNC(=O)COc1ccccc1	active: -103%
Cc1ccc(C)c(C(=O)CCC(=O)Nc2cccnc2)c1	inconclusive: -30.4%
S=C(Nc1ccc(Cl)cc1Cl)N1CCOCC1	inconclusive: -50.9%
CC1CCc2nn(CC(=O)NCCN3CCCCC3C)cc2C1 (centres undefined)	inconclusive: -76.2%
COc1ccc(NC(=O)CC(c2ccc(F)cc2)c2ccc(OC(C)C)cc2)cc1 (centres undefined)	inactive: -18.5%
Cc1ccc(C)c(S(=O)(=O)NCc2cccnc2)c1	inconclusive: -31.3%
Cn1c(SCC(=O)c2cc3ccccc3o2)nnc1-c1ccccc1	inactive: -11.1%
Cc1ccccc1NC(=S)NNC(=O)c1csc2c1CCC(C)C2 (centres undefined)	inconclusive: -71.2%
CCOc1cc(/C=C2/C(=O)ON=C2C)ccc1OCc1ccccc1F	inactive: 85.5%
CC1=CC(C)(C)NC(=S)N1c1ccc(C)cc1	inconclusive: -33.2%
O=C(NN=C1CCCC1)NC1CCCCC1	active: -118%
CCc1ccc(NC(=O)COc2ccc(/C=C(/C#N)c3nc4ccccc4[nH]3)cc2OC)cc1	inconclusive: -42%
O=C(N=C1SCC(=O)N1c1ccccc1)c1ccco1	inactive: 1.4%
COc1ccc(OC)c(NC(=S)N(CCc2c(C)[nH]c3ccc(C)cc23)Cc2cccs2)c1	inactive: 53.2%
COCC(=O)N(c1ccc(C(C)C)cc1)C1C=CS(=O)(=O)C1 (centres undefined)	inconclusive: -67.3%
O=C(Nc1nccs1)c1nc(-c2ccccc2)n(-c2ccccc2)n1	inactive: -28.2%
COc1ccc(OC)c2c(N3CC(C)OC(C)C3)cc(C(F)(F)F)nc12 (centres undefined)	inconclusive: -68.6%
C/C(CC(=O)Nc1ccccn1)=N\NC(=O)Cc1cccc2ccccc12	inconclusive: -75.8%

At a glance, five of the compounds above:
SMILES	activity change (PNC), negative = inhibition
Cc1cc2ccccc2n1CCNC(=O)COc1ccccc1	active: -103%
Cc1ccc(C)c(C(=O)CCC(=O)Nc2cccnc2)c1	inconclusive: -30.4%
S=C(Nc1ccc(Cl)cc1Cl)N1CCOCC1	inconclusive: -50.9%
CC1CCc2nn(CC(=O)NCCN3CCCCC3C)cc2C1 (centres undefined)	inconclusive: -76.2%
COc1ccc(NC(=O)CC(c2ccc(F)cc2)c2ccc(OC(C)C)cc2)cc1 (centres undefined)	inactive: -18.5%

Remaining list, next part

SMILES	activity change (PNC), negative = inhibition
CCN(CC)c1ccc(NC(=O)COc2ccccc2C#N)cc1S(=O)(=O)Nc1ccccc1OC	inactive: -18.7%
Cc1cc(NS(=O)(=O)Cc2ccccc2)cc(C)c1OCC(=O)N1CCOCC1	active: -95.7%
Cc1cccc2[nH]c3c(=O)n(CCN4CCNCC4)cnc3c12	inconclusive: -34.3%
N=c1sccn1CC(=O)Nc1ccc2c(c1)CCC2	inconclusive: -62.8%
Cc1cc(OCC(=O)N2CCc3ccccc3C2)c2c(-c3ccccc3)cc(=O)oc2c1	inconclusive: -46.1%
CCSc1ccccc1C(=O)NCc1ccc2c(c1)OCO2	inconclusive: -48.8%
CCOc1ccc(N2C(=O)S/C(=C\c3cccn3C)C2=O)cc1	inconclusive: -30.7%
COc1ccc(N2CCN(C(=O)CSc3nnc(Cn4nnc5ccccc54)n3C)CC2)cc1	inconclusive: -60.4%
Cc1nc(-c2ccccc2)sc1-c1nc(-c2cccnc2)ncc1S(=O)(=O)c1ccccc1	inactive: 16%
Nc1nc(NC(=O)c2ccco2)nn1-c1ccccc1	active: -89.6%
O=C(Nc1nnc(SCc2ccc(F)cc2)s1)C1Cc2ccccc2CN1C(=O)c1ccco1 (centres undefined)	inconclusive: -33.1%
CC(C)NC(=O)Cn1nnc(-c2ccc(Cl)cc2)n1	inactive: 30.2%
Cc1ccc2c(c1)N(CCC(=O)NCc1ccco1)C(=O)CO2	inconclusive: -38.1%
O=C1CS/C(=C/C(=O)c2ccccc2)N1	inconclusive: -36%
C/C(CC(=O)N(C(C)C)C(C)C)=N\NC(=O)COc1ccc(Br)cc1Br	active: -109%
CCOC(=S)SCC(=O)N1CCc2ccccc2C1C1C(=O)CCCC1=O (centres undefined)	inactive: -18.2%
CCCc1ccc(Oc2cc(C)nc(N3CCOCC3)n2)cc1	inactive: 37.1%
O=c1cc(Cl)c(-c2ccccc2)n[nH]1	inactive: 24.7%
O=C(c1ccc(F)cc1)N1CCN(c2ccc([N+](=O)[O-])c(N3CCCCC3)c2)CC1	inconclusive: -63.8%
Nc1nc(-c2ccccc2)cc(-c2ccccc2O)n1	inactive: -26.3%

SMILES	activity change (PNC), negative = inhibition
COC(=O)C1=C(C)N(C2CCCC2)C(=O)C1(NC(C)=O)C(F)(F)F (centres undefined)	inconclusive: -44.7%
Cc1nc(NC(=O)c2ccccc2)nc2cc3c(cc12)OCO3	inconclusive: -51.7%
CC1CCN(C(=O)COC(=O)[C@H](C)NS(=O)(=O)/C=C/c2ccccc2)CC1	inconclusive: -36.7%
Cc1ccc([N+](=O)[O-])cc1NC(=S)NC(=O)C(C)(C)C	inactive: 1.85%
O=S(=O)(Nc1nc2ccccc2nc1Nc1cccc(S(=O)(=O)N2CCCCC2)c1)c1ccccc1	inconclusive: -48.7%
COc1ccc(Cn2nnnc2C(c2cc3cc(C)ccc3[nH]c2=O)N2CCOCC2)cc1 (centres undefined)	inconclusive: -36.9%
CC1CC(C)(C)CC2(C1)NC(=O)N(CC(=O)NCC(c1ccco1)N1CCCCC1)C2=O (centres undefined)	inconclusive: -38.5%
O=C(Cc1cccc2ccccc12)NN1C(=O)C2C(C1=O)C1C=CC2C12CC2 (centres undefined)	inconclusive: -50.1%
O=C(CSc1nnc(C2COc3ccccc3O2)o1)N1CCCc2ccccc21 (centres undefined)	inconclusive: -41.8%
COc1cc(NC(=O)CN2CCN(c3ccccc3F)CC2)cc(OC)c1	inconclusive: -61.1%
CC(C)CCNC(=O)CO/N=C/c1ccccc1OC(F)F	inactive: 93.1%
COC(=O)C1=C(C)N=C2SCCC(=O)N2C1/C=C/c1ccccc1 (centres undefined)	inactive: 13.1%
O=C(O)CSc1nnc(Cc2ccccc2)n1-c1ccccc1	inconclusive: -63.2%
Cc1cc(S(=O)(=O)N(Cc2ccccc2)Cc2ccc(N(C)C)cc2)ccc1-n1cnnn1	active: -119%
Cc1ncc([N+](=O)[O-])n1Cc1cccc2ccccc12	inconclusive: -36.4%
O=C(Nc1cnccn1)c1csc2ccccc12	inactive: 1.89%
S=c1nc(-c2ccco2)[nH][nH]1	inactive: 16.1%
COc1ccccc1-c1nc(C#N)c(N2CCN(C(c3ccccc3)c3ccccc3)CC2)o1	inconclusive: -50.3%
COCc1nnc(NC(=O)c2ccc(S(=O)(=O)N3CCCCCC3)cc2)o1	inconclusive: -30.5%
